From PMC7409263

Amino acid sequences for entries named in this document (tags omitted). A change or cut given only in a name is not applied to a line headed by its entry.
UniProt Q6GQA4: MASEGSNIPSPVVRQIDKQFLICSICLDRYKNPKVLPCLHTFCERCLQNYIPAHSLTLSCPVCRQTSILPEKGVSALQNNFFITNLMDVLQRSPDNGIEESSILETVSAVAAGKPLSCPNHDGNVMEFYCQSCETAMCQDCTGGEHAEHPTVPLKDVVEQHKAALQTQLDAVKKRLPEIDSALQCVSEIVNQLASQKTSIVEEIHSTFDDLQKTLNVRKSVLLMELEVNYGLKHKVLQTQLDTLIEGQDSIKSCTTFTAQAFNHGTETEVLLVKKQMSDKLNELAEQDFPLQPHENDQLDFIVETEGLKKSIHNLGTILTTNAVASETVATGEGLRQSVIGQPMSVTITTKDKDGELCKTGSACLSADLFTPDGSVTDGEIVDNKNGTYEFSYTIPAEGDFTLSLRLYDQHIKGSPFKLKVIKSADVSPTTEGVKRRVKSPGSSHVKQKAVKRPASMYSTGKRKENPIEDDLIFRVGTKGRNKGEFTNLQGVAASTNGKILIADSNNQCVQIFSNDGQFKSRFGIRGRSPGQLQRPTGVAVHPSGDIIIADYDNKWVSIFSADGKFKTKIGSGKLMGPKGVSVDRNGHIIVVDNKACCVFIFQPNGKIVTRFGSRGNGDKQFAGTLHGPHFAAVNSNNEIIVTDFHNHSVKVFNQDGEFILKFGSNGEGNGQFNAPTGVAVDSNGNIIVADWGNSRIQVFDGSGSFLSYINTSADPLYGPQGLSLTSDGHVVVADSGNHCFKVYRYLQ
UniProt Q6INS0: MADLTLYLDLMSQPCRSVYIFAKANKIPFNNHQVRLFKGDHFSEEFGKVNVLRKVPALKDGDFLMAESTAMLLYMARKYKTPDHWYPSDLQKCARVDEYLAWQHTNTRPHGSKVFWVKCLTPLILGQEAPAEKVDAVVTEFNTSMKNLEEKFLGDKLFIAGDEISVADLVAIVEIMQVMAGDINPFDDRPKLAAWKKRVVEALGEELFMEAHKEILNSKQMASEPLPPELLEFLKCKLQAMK
UniProt Q7T0P9: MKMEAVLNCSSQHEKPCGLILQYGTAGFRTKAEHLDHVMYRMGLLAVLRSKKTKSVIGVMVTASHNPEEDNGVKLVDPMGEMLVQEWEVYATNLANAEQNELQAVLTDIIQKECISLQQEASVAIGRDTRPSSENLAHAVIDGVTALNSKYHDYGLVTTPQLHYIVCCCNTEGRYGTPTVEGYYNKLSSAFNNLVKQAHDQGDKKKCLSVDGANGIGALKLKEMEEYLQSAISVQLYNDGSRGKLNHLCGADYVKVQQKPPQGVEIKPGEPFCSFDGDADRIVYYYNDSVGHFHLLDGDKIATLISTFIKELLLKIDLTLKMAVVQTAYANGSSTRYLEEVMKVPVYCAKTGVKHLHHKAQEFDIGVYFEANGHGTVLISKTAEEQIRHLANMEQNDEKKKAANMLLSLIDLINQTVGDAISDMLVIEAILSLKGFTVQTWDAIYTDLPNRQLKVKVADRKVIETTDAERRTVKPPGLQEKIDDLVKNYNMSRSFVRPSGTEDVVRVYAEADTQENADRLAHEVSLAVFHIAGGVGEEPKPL
UniProt Q52KW8: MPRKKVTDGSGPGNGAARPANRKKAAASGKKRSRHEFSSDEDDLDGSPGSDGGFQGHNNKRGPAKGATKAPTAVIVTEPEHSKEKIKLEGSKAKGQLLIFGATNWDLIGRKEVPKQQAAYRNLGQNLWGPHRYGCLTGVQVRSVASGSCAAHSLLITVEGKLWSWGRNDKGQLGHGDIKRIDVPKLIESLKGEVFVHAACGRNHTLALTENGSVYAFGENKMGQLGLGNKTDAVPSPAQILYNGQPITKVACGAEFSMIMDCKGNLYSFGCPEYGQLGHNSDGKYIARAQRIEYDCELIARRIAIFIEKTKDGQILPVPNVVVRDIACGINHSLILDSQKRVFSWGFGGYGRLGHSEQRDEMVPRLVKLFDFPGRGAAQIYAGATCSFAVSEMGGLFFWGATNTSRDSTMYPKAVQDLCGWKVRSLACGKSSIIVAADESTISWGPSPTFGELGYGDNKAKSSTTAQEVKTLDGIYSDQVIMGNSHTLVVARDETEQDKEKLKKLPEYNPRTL
UniProt Q7ZTL1: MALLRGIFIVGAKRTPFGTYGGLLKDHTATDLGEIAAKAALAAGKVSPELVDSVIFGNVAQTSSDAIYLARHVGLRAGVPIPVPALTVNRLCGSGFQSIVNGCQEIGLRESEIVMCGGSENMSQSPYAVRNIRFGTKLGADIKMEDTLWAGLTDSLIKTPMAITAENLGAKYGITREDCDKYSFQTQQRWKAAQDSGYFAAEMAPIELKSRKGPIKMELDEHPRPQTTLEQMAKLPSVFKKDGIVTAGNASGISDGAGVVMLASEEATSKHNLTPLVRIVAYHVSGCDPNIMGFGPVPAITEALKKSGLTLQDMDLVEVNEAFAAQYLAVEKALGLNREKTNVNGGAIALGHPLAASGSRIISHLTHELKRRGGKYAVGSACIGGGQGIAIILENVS
UniProt A2RV94: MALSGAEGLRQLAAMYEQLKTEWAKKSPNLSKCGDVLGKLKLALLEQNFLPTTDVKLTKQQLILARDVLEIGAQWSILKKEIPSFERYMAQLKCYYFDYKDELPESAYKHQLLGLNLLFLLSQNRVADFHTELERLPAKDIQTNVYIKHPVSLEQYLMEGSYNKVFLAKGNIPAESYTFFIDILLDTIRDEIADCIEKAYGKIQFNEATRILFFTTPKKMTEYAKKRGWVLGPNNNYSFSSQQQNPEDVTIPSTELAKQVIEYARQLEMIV
UniProt P51469: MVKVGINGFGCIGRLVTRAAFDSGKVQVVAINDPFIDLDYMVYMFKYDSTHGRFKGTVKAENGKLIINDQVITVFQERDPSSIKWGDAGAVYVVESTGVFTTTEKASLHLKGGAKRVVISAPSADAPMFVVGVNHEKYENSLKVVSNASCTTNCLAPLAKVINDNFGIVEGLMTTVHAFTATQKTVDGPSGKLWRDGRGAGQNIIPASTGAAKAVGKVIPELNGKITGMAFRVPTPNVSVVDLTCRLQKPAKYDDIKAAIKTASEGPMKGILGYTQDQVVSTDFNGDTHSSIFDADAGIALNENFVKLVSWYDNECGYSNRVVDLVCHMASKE
UniProt Q6GQA7: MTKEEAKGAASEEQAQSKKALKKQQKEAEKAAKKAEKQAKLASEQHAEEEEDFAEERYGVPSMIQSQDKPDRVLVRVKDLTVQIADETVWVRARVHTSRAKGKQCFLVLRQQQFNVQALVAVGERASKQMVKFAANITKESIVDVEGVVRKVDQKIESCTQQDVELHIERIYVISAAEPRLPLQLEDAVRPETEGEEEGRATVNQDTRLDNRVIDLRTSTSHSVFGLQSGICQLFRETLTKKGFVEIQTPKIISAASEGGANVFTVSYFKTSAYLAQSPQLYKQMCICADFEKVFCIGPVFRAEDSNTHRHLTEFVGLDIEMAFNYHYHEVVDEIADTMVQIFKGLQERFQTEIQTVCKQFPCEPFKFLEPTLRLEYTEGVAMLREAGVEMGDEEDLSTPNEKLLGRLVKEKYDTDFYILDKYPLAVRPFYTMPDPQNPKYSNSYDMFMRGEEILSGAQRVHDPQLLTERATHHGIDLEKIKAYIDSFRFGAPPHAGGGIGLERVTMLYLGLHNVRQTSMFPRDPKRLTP
UniProt Q6DJK5: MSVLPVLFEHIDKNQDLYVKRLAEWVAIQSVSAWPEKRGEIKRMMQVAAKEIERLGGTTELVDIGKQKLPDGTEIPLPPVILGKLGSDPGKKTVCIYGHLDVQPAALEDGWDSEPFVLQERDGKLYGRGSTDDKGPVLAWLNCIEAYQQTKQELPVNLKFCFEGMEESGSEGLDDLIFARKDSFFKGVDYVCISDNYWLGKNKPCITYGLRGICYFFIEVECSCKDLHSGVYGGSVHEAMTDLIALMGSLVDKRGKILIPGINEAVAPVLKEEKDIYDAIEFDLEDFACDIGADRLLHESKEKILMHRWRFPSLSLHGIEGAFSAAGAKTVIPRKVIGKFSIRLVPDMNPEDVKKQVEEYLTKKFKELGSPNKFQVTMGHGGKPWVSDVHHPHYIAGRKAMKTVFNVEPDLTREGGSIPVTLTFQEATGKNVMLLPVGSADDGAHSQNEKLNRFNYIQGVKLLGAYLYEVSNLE
UniProt A0A8J0U0U7: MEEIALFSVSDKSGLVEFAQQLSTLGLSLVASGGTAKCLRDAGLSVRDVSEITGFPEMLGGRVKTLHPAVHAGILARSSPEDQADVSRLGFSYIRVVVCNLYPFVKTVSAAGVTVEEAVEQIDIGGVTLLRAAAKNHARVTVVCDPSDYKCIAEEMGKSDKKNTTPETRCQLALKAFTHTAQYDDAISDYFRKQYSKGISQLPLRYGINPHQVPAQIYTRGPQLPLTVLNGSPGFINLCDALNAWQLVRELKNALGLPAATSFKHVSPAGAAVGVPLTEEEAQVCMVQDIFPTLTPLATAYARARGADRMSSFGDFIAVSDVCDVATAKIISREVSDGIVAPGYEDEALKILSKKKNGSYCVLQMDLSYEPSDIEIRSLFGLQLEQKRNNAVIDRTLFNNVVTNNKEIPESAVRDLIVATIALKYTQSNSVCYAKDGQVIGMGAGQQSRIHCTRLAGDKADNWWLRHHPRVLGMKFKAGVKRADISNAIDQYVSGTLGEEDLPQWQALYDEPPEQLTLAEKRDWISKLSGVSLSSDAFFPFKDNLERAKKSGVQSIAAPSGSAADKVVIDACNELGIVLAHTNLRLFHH
UniProt Q7ZY16: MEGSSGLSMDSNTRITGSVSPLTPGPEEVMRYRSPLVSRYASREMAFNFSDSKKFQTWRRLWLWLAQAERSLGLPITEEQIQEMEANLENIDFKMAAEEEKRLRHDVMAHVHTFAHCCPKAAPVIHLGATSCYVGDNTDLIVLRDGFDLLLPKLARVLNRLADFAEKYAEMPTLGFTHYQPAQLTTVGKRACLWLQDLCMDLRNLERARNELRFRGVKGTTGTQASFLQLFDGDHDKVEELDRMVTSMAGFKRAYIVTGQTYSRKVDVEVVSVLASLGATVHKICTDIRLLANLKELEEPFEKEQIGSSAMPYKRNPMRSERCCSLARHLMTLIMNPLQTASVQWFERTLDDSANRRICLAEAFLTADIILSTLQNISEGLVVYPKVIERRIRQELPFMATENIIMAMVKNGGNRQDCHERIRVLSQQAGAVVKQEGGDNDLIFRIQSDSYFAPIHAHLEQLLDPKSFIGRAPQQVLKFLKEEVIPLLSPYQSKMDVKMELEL
UniProt Q66IX2: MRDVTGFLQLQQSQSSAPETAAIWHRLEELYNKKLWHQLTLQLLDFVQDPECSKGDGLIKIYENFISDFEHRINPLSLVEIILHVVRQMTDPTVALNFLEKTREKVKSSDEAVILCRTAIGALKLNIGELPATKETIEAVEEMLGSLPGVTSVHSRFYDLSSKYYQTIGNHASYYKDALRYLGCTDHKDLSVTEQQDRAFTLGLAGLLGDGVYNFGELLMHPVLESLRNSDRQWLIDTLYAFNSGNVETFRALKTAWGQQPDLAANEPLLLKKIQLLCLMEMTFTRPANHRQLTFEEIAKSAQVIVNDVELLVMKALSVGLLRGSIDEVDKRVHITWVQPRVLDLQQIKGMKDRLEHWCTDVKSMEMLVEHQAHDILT
UniProt Q6DJQ1: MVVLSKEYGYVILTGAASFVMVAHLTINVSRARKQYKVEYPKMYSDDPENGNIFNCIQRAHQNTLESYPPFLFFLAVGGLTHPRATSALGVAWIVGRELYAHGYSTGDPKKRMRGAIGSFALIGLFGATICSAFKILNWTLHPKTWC

B1: endoplasmic reticulum oxidoreductase alpha (protein, UniProt Q6DD71 21-465)
chain: QEAPASAAQRCFCQVTGYLDDCTCDVETIDRFNNHGLFPKLQQLVASDYFRYYKVNLKKSCPFWEDNSHCGVRDCAVNPCSSDEVPGFKPPGFKYTEEANHVHEDVDDCEKEKRLSAVDESLSVETQEAMLKWNRHDDSSDNFCEVDDEESPDAEYVDLLKNPERFTGYKGADTWRIWNSIYEENCFKPKAVQRPLNPLTSSRGENEGNMFYNWLDGLCVEKRAFYRLISGLHASINIHLCATYLLKDTWMDKIWGHNVAEFQKRFDATLTHGEGPKRLRNLYFIYLIELRAISKVLPFFERSNFLLYTGNETKDKETKKILLDVLQDARDFPLHFDENSLFSGDKKEAAKLKEDFRQHFRNISKIMDCVGCFKCRLWGKLQTQGLGTALKILFSEKQIENLSESNQPSAFHLTRQEIVALFNAFGRISTSVQELENFRKLLEKV
B2: ribonucleotide reductase M1 (protein, UniProt H1A8Z1 1-797)
chain: MHVIKRDGRQERVMFDKITSRIQKLCYGLNLEFVDPAQITMKVIQGLYSGVTTIELDTLAAETAATLTTKHPDYAILAARVAVSNLHKETKKTFSDVMEDLYNYVNPLNSKHSPMVSKETLDIVLANKDRLNSSIIYDRDFSYNFFGFKTLERSYLLKINGKVAERPQHMLMRVSVGIHKTDIDAAIETYNLLSEKWFTHASPTLFNAGTNRPQLSSCFLLCMKDDSIEGIYDTLKQCALISKSAGGIGVAVSCIRATGSYIAGTNGNSNGLVPMLRVYNNTARYVDQGGNKRPGAFAIYLEPWHYDVFDFLDLKKNTGKEEQRARDLFYAMWIPDLFMKRVENNLDWSLMCPHECPGLEEVWGDKFEELYEKYEREGRTRKVVKAQQVWHAIIESQTETGTPYMLYKDACNRKSNQQNLGTIKCSNQCTEIVEYTSDKEVAVCNLASLALNMYVTPERSFDFKKLADVTKVIVRNLNKIIEINFYPVPEAEYSNKKHRPIGIGVQGLADAFILMRYPFESEKAQMLNKQIFETIYYAALESSCELAKELGPYETYEGCPVSKGILQYDMWNVTPTDLWDWTALKEKIAKYGIRNSLLLAPMPTASTAQILGNNESIEPYTSNIYTRRVLSGEFQIVNPHLMKDLTEQGLWNEEMKNQIIANNGSIQNVPDIPADLKELYKTVWEISQKTVITMAADRGAFIDQSQSLNIHVAEPNYGKLTSMHFYGWKQGLKTGMYYLRTRPAANPIQFTLNKEKLKEKELITMETTEKDKEEKEKNKAAMVCSLENRDECLMCGS
B3: serpin family A member 6 (protein, UniProt Q00387 17-436)
chain: SVTEISLDNKHRHRHEQQGHHDSAKHGHQKDKQQQEQIKNDEGKLTKEEKILSEENSDFSVNLFNQLSTESKRSPRKNIFFSPISISAAFYMLALGAKSETHQQILKGLSFNKKKLSESQVHEAFKRLIEDSNNPMKAHQFTIGNALFVEQTVNILKGFEENVKHYYQAGVFPMNFKDPDNAKKQLNNYVKDKTHGVIQEMIRELDSNTEMVLVNYVLYKGEWANNFNPTLTQKSLFSVDKNTNVTVQMMNRLGLYRTYQDDDCKIIELPYKNDTAMLLVVPQLGKIQELVLTSKLINHWYESLATSIVDLYMPTFSISGKVVLKDTLRKMGISDIFTDKADLTGISEQIKLKVSMASHNAVLNVNEFGTEAVGATSAQASPTKLFPPFLIDSPFLVMIYSRTLGSQLFMGKVMDPTNAQ
B4: programmed cell death 6-interacting protein (Alix), endogenous in Xenopus embryos (protein, UniProt Q9W6C5-1 1-867)
chain: MATFISVPLKKTSEVDLVKPLSKYIHNTYPSGEDQTEYCRAVDELNKLRKSAVGRPLDKHETSLETVMRYYDQLCSVEPKFPFTESQLCLTFTWKDAFDKGSIFGGSVKLALPSLGYEKTCVLFNIGALASQIASEQNLDNDEALKAASKFYQLASGAFSHIKDTVLSSLNRDPTVDISPDTVGTLSLIMLAQAQEVFFLKATRDKMKDAVIAKLANQAADYYGDAFKQCQYKDTLSKEVFPILAAKHCIMQAHAEYHQSVLAKQQKKFGEEIGRLQHASDLVKTVSSRYDEYVNVKDLADKINRALTAAKKDNDFIYHDRVPDLKDLDPVGKASLVKSTPVNVPLSQKYTDLFEKMVPLAVQQCLSVYNQRKSELINSTIAQMRDATIFANGVLASLNLPAAVEDVSGDSIPQSILNKSKTVIEQGGIQTIGQLIRDLPELLQRNKEILEESLKFLDEEEATDNDLKAKFKDRWQRTPSTELYKPLRSEGSNFRNVLDKAIGADAVVKERYQSHREAIVILCKPEAELNAAIPSANPAKTMQGSEVVTVLKSLLNKLDDMKKEREQLENDIKSVNFDMTTKFLTALAQDGAVNEEAISVTELDQIYGSYTYKVQENLKKQEDLLNNIQSAHQEFSKMKQSNSEANLREEVLKNLAVGHDNYIELVANLKEGTKFYNDLTDILLKFQCKCSDIVFARKTERDELLKDIQQSIAREPSAPSIPQVPSYQSAPSSISTNIATSSIPTPAPRTVFSAKQPPPRPPPPAMPSASPVPASAAQASNPAPTAAADSSQPPSNTIPSQAQGPPYPSYPGYPGYYGMPMPVGYNPYMYGQQTIPPYMYQPPSGQPPYPAQQPSFSYPQQPFFPPQ

Biological target: GST-Trim2 (Xenopus tripartite motif containing 2) (Xenopus laevis) (UniProt Q6GQA4)
Assay: affinity purification with mass spectrometry; GST-Trim2 as bait on Xenopus embryonic lysates (NF stages 30-36), GSH-Sepharose, LC-MS/MS on an LTQ Orbitrap; three independent biological replicates; enrichment relative to GST alone; only the target purified

Row | Molecule | binding
1 | glutathione S-transferase theta 1 (from UniProt Q6INS0) | binds
2 | phosphoglucomutase 3 (from UniProt Q7T0P9) | binds
3 | regulator of chromosome condensation 2 (from UniProt Q52KW8 1-513) | binds
4 | acetyl-CoA acyltransferase 2 (from UniProt Q7ZTL1) | binds
5 | proteasome 26S subunit, non-ATPase 8 (from UniProt A2RV94) | binds
6 | glyceraldehyde-3-phosphate dehydrogenase (from UniProt P51469 1-333) | binds
7 | aspartyl-tRNA synthetase (from UniProt Q6GQA7) | binds
8 | glutamyl-prolyl-tRNA synthetase (from UniProt B1WBE0) | binds
9 | CNDP dipeptidase 2 (from UniProt Q6DJK5) | binds
10 | bifunctional purine biosynthesis protein (from UniProt A0A8J0U0U7) | binds
11 | adenylosuccinate lyase (from UniProt Q7ZY16) | binds
12 | proteasome 26S subunit, non-ATPase 13 (from UniProt Q66IX2) | binds
13 | microsomal glutathione S-transferase 3 (from UniProt Q6DJQ1) | binds
14 | B1 | binds
15 | B2 | binds
16 | B3 | binds
17 | B4 | binds

Results are given in words; binding and its absence hold for the method and conditions named. Binding seen in cells or lysates may run through a third protein. A yes stands for co-enrichment or nearness to the bait. Other partners may have been found.
